Common to all, as to test: pull-down
The target of test [1] is T1, Halo-ySet2 (yeast) (UniProt P46995).
T1 sequence: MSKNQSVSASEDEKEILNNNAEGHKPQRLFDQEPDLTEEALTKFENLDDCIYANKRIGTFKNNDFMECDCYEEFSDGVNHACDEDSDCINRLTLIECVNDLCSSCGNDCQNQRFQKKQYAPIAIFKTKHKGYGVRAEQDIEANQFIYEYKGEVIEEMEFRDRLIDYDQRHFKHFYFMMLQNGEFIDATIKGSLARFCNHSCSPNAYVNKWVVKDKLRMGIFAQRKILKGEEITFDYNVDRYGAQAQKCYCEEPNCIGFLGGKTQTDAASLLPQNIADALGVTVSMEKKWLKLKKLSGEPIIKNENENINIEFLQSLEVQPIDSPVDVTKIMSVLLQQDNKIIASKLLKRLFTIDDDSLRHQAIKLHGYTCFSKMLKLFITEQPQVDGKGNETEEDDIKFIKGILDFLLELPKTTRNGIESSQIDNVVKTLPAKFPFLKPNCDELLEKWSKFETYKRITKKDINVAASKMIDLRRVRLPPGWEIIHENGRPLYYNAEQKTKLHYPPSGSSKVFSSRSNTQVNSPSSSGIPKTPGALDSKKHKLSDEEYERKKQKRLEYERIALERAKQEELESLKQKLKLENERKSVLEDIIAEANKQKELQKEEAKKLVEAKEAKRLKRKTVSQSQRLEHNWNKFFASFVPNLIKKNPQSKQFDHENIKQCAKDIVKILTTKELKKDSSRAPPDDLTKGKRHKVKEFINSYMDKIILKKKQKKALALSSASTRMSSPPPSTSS

Test [2] has as its target T2, Halo-FLAG-SETD2C (human) (UniProt Q9BYW2).
T2 sequence: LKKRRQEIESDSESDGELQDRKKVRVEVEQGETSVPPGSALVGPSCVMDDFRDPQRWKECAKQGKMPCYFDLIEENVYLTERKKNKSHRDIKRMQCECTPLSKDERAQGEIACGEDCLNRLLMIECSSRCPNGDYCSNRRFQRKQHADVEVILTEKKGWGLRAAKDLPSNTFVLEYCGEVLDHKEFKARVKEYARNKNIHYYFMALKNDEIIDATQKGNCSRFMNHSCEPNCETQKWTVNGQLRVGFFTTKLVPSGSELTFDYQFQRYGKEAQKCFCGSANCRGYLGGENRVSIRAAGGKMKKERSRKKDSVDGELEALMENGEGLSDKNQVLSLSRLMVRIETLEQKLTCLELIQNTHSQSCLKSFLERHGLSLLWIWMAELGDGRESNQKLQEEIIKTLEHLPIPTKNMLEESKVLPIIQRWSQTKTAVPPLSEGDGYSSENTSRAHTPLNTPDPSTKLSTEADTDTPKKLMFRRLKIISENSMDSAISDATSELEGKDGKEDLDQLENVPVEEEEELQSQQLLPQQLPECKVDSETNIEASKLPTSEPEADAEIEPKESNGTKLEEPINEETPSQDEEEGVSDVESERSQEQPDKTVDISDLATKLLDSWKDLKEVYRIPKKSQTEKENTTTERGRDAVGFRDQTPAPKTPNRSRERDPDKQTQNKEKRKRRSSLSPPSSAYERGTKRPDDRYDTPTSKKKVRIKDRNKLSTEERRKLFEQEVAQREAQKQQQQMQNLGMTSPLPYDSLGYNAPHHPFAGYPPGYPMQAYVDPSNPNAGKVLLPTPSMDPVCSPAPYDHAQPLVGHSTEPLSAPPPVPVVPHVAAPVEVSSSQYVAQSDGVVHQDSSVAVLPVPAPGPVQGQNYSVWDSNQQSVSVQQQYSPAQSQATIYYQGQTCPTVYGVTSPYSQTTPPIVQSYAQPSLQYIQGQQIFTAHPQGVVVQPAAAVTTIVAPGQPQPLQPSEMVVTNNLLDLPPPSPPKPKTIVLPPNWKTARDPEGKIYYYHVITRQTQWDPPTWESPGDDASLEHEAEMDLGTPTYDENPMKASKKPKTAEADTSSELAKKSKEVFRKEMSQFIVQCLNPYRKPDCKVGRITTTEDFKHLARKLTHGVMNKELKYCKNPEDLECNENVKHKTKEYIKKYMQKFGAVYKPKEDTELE

Test [3] addresses T3, Halo-SETD2C (1404-2564) (human) (UniProt Q9BYW2).
T3 sequence: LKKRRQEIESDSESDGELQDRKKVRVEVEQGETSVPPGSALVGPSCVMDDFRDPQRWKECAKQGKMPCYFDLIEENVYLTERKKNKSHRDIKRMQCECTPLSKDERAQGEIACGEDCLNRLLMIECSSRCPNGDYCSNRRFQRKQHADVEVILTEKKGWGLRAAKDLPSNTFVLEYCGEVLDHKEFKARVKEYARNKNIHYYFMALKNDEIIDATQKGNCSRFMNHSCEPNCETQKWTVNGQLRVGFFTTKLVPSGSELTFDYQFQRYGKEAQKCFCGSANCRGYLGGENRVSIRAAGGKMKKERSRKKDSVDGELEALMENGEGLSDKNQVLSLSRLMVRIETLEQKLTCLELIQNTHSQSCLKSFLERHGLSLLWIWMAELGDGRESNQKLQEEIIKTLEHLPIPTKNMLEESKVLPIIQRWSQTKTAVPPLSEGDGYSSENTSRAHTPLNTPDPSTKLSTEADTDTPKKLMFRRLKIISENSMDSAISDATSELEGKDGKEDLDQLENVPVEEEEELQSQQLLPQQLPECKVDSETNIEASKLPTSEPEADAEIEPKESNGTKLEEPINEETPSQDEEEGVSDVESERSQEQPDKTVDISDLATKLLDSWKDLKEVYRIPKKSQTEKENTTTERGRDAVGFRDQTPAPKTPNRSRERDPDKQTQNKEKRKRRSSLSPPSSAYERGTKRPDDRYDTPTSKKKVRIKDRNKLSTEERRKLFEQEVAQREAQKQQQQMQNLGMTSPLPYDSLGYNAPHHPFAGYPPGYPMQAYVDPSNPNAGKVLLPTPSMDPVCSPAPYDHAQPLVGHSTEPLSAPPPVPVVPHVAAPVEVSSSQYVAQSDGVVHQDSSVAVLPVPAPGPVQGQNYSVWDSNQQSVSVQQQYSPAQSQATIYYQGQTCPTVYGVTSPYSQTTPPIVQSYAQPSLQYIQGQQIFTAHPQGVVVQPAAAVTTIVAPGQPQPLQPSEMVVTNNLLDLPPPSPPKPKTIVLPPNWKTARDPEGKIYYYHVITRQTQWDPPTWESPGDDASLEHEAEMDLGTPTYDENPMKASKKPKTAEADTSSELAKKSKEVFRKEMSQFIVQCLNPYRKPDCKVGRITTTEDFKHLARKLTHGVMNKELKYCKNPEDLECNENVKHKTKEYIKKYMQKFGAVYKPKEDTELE

No constants are given. Whether binding was seen depends on the method and setting. Binding seen in cells or lysates may run through a third protein. Some entries that bind do so weakly or less than the wild type. For part of these data: Where a sequence is shown, tags or fusion partners need not be part of it.

B1: hnRNP L (endogenous) (protein, UniProt P14866 1-589)
chain: MSRRLLPRAEKRRRRLEQRQQPDEQRRRSGAMVKMAAAGGGGGGGRYYGGGSEGGRAPKRLKTDNAGDQHGGGGGGGGGAGAAGGGGGGENYDDPHKTPASPVVHIRGLIDGVVEADLVEALQEFGPISYVVVMPKKRQALVEFEDVLGACNAVNYAADNQIYIAGHPAFVNYSTSQKISRPGDSDDSRSVNSVLLFTILNPIYSITTDVLYTICNPCGPVQRIVIFRKNGVQAMVEFDSVQSAQRAKASLNGADIYSGCCTLKIEYAKPTRLNVFKNDQDTWDYTNPNLSGQGDPGSNPNKRQRQPPLLGDHPAEYGGPHGGYHSHYHDEGYGPPPPHYEGRRMGPPVGGHRRGPSRYGPQYGHPPPPPPPPEYGPHADSPVLMVYGLDQSKMNCDRVFNVFCLYGNVEKVKFMKSKPGAAMVEMADGYAVDRAITHLNNNFMFGQKLNVCVSKQPAIMPGQSYGLEDGSCSYKDFSESRNNRFSTPEQAAKNRIQHPSNVLHFFNAPLEVTEENFFEICDELGVKRPSSVKVFSGKSERSSSGLLEWESKSDALETLGFLNHYQMKNPNGPYPYTLKLCFSTAQHAS
B1: the values for the binding result in test [1], in test [2] and in test [3] were “no binding”, “binds” and “binds”, respectively.

The values above are taken from publication doi:10.1101/2020.06.06.138156 (bioRxiv, 2020).
